Experimental data published in PubChem BioAssay AID2551 (National Center for Advancing Translational Sciences (NCATS), 2010).
The campaign covered roughly 310,000 compounds. About 17,000 (5.5%) were called active. Inconclusive means that the source gave no clear call. Such entries were picked first, then a sample of the others. Calls come from the whole dose curve; as a rule, active = well fitted inhibition curve with a large enough effect; inconclusive = small, poorly fitted or top-dose-only effect, or effect the other way; inactive = no such curve, though single readings can be large or run the other way. Potencies beside an inconclusive call are fits to weak or partial responses and may not hold up.

Chains of the proteins cited; added tags and fusions are not shown. Lines headed by an entry give the natural chain unless they say otherwise; changes in a name come on top.
UniProt P51450: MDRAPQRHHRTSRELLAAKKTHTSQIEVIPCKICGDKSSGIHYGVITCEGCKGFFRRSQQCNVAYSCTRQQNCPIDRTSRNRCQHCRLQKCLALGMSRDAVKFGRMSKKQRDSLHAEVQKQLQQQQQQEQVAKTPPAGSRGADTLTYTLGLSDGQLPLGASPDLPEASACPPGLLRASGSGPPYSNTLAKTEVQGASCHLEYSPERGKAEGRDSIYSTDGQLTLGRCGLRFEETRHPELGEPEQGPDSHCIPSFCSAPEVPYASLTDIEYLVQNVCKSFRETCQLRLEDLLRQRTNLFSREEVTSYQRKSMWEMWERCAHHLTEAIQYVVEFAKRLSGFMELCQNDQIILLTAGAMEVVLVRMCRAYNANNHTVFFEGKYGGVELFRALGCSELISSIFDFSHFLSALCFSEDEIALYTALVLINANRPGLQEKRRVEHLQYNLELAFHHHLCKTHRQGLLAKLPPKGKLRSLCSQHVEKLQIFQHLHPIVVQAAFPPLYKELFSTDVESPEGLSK

Target: Nuclear receptor ROR-gamma (Mus musculus) (UniProt P51450)
Assay: qHTS for inhibitors of ROR gamma transcriptional activity; note: nearly all actives have a fitted effect of over 60% in size
Conditions: Drosophila S2 Gal4-RORgamma UAS-luciferase reporter, 20 h; activity change, negative = inhibition: at 53.6 µM (top of the series)
In short: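 Read-out: Photinus luciferase luminescence; inhibitors lower reporter signal. Insect Schneider cells with Gal4-ROR gamma fusion under metallothionein promoter, UAS reporter; 700 uM final copper sulfate induction, 20 hr, ambient temperature.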
% is set by controls: 0 for no effect and ±100 for the full control effect; potency is the fitted concentration of half-maximal effect.

| Compound | Potency | activity change, negative = inhibition |
| --- | --- | --- |
| CC1CCCC/C1=N\NC(=S)Nc1cccnc1 (stereo not given) | inconclusive: 20 µM [inhibitor, single point] | – |
| COc1ccccc1CNc1ncncc1-c1ccc(N(C)C)cc1 | active: 22.4 µM | – |
| C(=N\Nc1nc(N2CCCC2)nc(N2CCCC2)n1)/c1cccnc1 | – | inactive: -13.6% |
| CC(C)(C)c1cc(C(=O)NNC(=O)Nc2cccc(Cl)c2)n(Cc2ccccc2)n1 | – | inactive: 37.4% |
| CC(C)c1ccc(/C=C2\SC(=O)N(CC(=O)NC3CCS(=O)(=O)C3)C2=O)cc1 (stereo not given) | inconclusive: 31.6 µM [inhibitor, single point] | – |
| COc1ccccc1CN(Cc1cc2cc3c(cc2[nH]c1=O)OCCO3)Cc1nnnn1Cc1ccco1 | inconclusive: 20 µM [activator, single point] | – |
| COc1ccc2c(c1)C(=O)[C@@H](OC(=O)NCCc1ccc(OC)c(OC)c1)[C@H](c1ccc(OC)c(Br)c1)O2 | – | inactive: -12.5% |
| CCCC(=O)Nc1nnc(-c2ccc3c(c2)OCCO3)o1 | inconclusive: 15.8 µM [inhibitor, single point] | – |
| Cc1cc(C(=O)N/N=C/c2c3ccccc3cc3ccccc23)n[nH]1 | – | inactive: -12.4% |
| COc1ccc(Cn2c(CCC(=O)N3CCN(c4ccccn4)CC3)nc3ncccc3c2=O)cc1 | inconclusive: 14.1 µM [activator, single point] | – |
| CC(C)c1ccc(O)c(NC(=S)NC(=O)c2ccc3c(c2)OCO3)c1 | active: 0.562 µM | – |
| CC(C)(C)n1nnnc1C(c1ccc2ncccc2c1)N1CCSCC1 (stereo not given) | active: 10 µM | – |
| Cc1cc(C)c2nc(NNC(=O)c3ccc(S(=O)(=O)N4CC(C)CC(C)C4)cc3)sc2c1 (stereo not given) | active: 2 µM | – |
| CCNC(=O)CC1SC(=Nc2cccc(Cl)c2C)N(C)C1=O (stereo not given) | inconclusive: 11.2 µM [activator, single point] | – |
| COC(=O)C1=CN(c2ccc(OC)cc2)C=C(C(=O)OC)C1c1ccc(C)c([N+](=O)[O-])c1 | – | inactive: 24.3% |
| COc1ccc(-c2csc(=NCCO)n2-c2ccccc2)cc1 | inconclusive: 10 µM [activator, partial curve, poor fit] | – |
| CC1CCN(C(=O)c2ccc(CSc3nc4ccncc4n3Cc3ccc(F)cc3)cc2)CC1 | – | inactive: 35.8% |
| O=C(NC1CCCC1)c1cccc(Oc2ccccc2)c1 | inconclusive: 12.6 µM [activator, partial curve] | – |
| CCOC(=O)N1CCC(N(CCCOC)C(=O)Nc2cccc(OC)c2)CC1 | – | inactive: 10.4% |
| CN1CCN(S(=O)(=O)c2cccc(S(=O)(=O)c3ccc(Cl)cc3)c2)CC1 | inconclusive: 12.6 µM [activator, single point] | – |
| O=Cc1cc(CCC(=O)O)ccc1O | inconclusive: 25.1 µM [inhibitor, single point] | – |
| COc1ccc2nc(C(F)(F)Cl)c(C#N)c(N)c2c1 | inconclusive: 10 µM [activator, partial curve] | – |
| CCc1ccccc1NC(=O)CN(c1ccc(OC)cc1OC)S(=O)(=O)c1ccccc1 | inconclusive: 17.8 µM [activator, single point] | – |

| Compound | Potency | activity change, negative = inhibition |
| --- | --- | --- |
| CC1=NN(C(=O)c2ccccc2Cl)C(O)(c2cccnc2)C1 (stereo not given) | inconclusive: 35.5 µM [inhibitor, single point] | – |
| C=CCOc1ccc(/C=C2\SC(=S)N(CCC(=O)O)C2=O)cc1 | inconclusive: 0.501 µM [inhibitor, full curve] | – |
| O=C(NCc1cccs1)C1CC(c2ccccc2O)=NO1 (stereo not given) | inconclusive: 17.8 µM [inhibitor, single point] | – |
| O=C(CCC1N=C2c3ccccc3N=C(SCc3cccc(Cl)c3)N2C1=O)NCc1ccco1 (stereo not given) | inconclusive: 12.6 µM [activator, partial curve] | – |
| COc1ccc(-n2nc(C(=O)NCC(=O)Nc3cc(OC)c(OC)c(OC)c3)c3ccccc3c2=O)cc1Cl | inconclusive: 15.8 µM [inhibitor, single point] | – |
| CC1(C)Cc2c(sc3nc(-c4ccccc4)oc(=O)c23)CO1 | inconclusive: 0.316 µM [activator, full curve, poor fit] | – |
| COc1cc(C(=O)Nc2nc3ccc(S(=O)(=O)N4CCOCC4)cc3s2)cc(OC)c1OC | – | inactive: 0.457% |
| CN1CCN(CC(=O)N2CCn3c4c(c5cc(C6CCCCC6)ccc53)CCCC42)CC1 (stereo not given) | active: 2.24 µM | – |
| O=C(Nc1nccs1)C1CCN(S(=O)(=O)c2ccc3c(c2)OCCCO3)CC1 | – | inactive: 34.6% |
| CCOC(=O)C1CCCN(C(=O)c2ccc(Cl)c(S(=O)(=O)N3CCCCCC3)c2)C1 (stereo not given) | inconclusive: 17.8 µM [activator, single point] | – |
| Cc1ccc(S(=O)(=O)N2CCC(=O)N(CCOCc3cccc(Cl)c3)CC2)cc1 | inconclusive: 35.5 µM [activator, single point] | – |
| COc1ccc(C(CNC(=O)c2ccc3c(c2)C(=O)N(CCC(C)C)C3=O)N2CCOCC2)cc1 (stereo not given) | inconclusive: 14.1 µM [activator, single point] | – |
| O=C(Nc1cccc(NC(=O)c2ccccc2Cl)c1)c1ccc([N+](=O)[O-])o1 | inconclusive: 35.5 µM [inhibitor, single point] | – |
| CN1CCN(C(=O)/C=C/c2ccc([N+](=O)[O-])o2)CC1 | inconclusive: 11.2 µM [inhibitor, partial curve] | – |
| O=C(Cc1cccc(C(F)(F)F)c1)Nc1ccccc1N1CCCC1 | inconclusive: 10 µM [activator, single point] | – |
| O=C1NCCCC2c3cc(O)c4ccccc4c3OC12N1CCCCC1 (stereo not given) | active: 10 µM | – |
| CCOC(=O)c1c(C)oc2cc(Cl)c(O)c(CN(C)C)c12 | – | inactive: 4.72% |
| COC(=O)/C(C#N)=C/c1ccc(OC(=O)c2ccccn2)cc1 | – | inactive: 4.36% |
| Cc1ccc(Oc2cc(-n3nc(C)cc3C)ncn2)cc1 | inconclusive: 15.8 µM [activator, single point] | – |
| Cc1ccc(N/N=C/c2cccnc2)cc1 | inconclusive: 1.41 µM [activator, full curve, poor fit] | – |
| CCN(CC(=O)N(CC(C)C)c1c(N)n(CC(C)C)c(=O)[nH]c1=O)Cc1nc2ccccc2c(=O)[nH]1 | active: 3.98 µM | – |
| S=c1nc2ccccc2c2nc(-c3ccccc3Cl)[nH]n12 | active: 0.355 µM | – |

An excerpt of the results above, for reference:

| Compound | Potency | activity change, negative = inhibition |
| --- | --- | --- |
| COc1ccc2c(c1)C(=O)[C@@H](OC(=O)NCCc1ccc(OC)c(OC)c1)[C@H](c1ccc(OC)c(Br)c1)O2 | – | inactive: -12.5% |
| CCCC(=O)Nc1nnc(-c2ccc3c(c2)OCCO3)o1 | inconclusive: 15.8 µM [inhibitor, single point] | – |
| Cc1cc(C(=O)N/N=C/c2c3ccccc3cc3ccccc23)n[nH]1 | – | inactive: -12.4% |
